# Test results published in PubChem BioAssay AID1347076 (National Center for Advancing Translational Sciences (NCATS), 2019).
# Among all 400,000 compounds or so, about 13,000 (3.2%) were called active. The shares of active, inactive and inconclusive entries below differ from those in the screen. Calls come from the whole dose curve; as a rule, active = well fitted cell-killing curve with a large enough effect; inconclusive = small, poorly fitted or top-dose-only effect, or effect the other way; inactive = flat fitted curve, though single readings scatter. Potencies beside an inconclusive call are fits to weak or partial responses and may not hold up.
# Assay: qHTS assay for MDR1-selective chemotherapeutics: Primary screen using the drug-selected MDR subline cells KB-V1; note: nearly all actives have a fitted effect of over 60% in size
# Details: KB-V1 MDR cells viability, CellTiter-Glo, 72 h; activity change, negative = cytotoxicity: at 46.1 µM (top of the series)
# In short: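 KB-V1 MDR subline cells in DMEM (phenol-red free, 10% FBS) exposed to compounds in qHTS concentration series for 72 h at 37 degrees C. Viability read by CellTiter-Glo luminescence; concentration-effect curves fitted after normalization and correction.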
# % is set by controls: 0 for no effect and ±100 for the full control effect; potency is the fitted concentration of half-maximal effect.
SMILES,Potency,"activity change, negative = cytotoxicity"
O=C(C(NS(=O)(=O)c1cccc2nsnc12)c1ccccc1)N1CCN(c2ccccn2)CC1 (centres undefined),"inconclusive: 16.4 µM [cytotoxic, single point]",
O=C(COC(=O)c1ccc(O)cc1)Nc1ccc2c(c1)OCO2,"inconclusive: 18.4 µM [rising, single point]",
Cc1cccc(-c2cc3nc4c(c(N5CCCC(O)C5)n3n2)CCC4)c1 (centres undefined),"inconclusive: 0.82 µM [cytotoxic, full curve, poor fit]",
N#CC(C#N)=C1C=CC=CN1/C(=C\c1ccccc1)C(=O)c1cccs1,"inconclusive: 32.6 µM [cytotoxic, single point]",
O=C(N/N=C/c1sc(=O)n(Cc2ccc(Br)cc2)c1Cl)c1ccco1,,inactive: -6.49%
Cc1cccc(C(=O)Nc2cccc(OCC(=O)O)c2)c1,"inconclusive: 29.1 µM [rising, single point]",
COc1ccc(CCN2C(=O)CC(C(N)=O)SC2=Nc2ccccc2)cc1OC (centres undefined),active: 20.6 µM,
CCOC(=O)C(=NCCOC)NNc1cc(Cl)ccc1Cl,"inconclusive: 18.4 µM [rising, single point]",
COc1ccccc1-c1cc(C(=O)NCCCn2ccnc2)no1,"inconclusive: 10.3 µM [cytotoxic, partial curve]",
C=CCn1c(O)c(N=O)c2cc(C)ccc21,"inconclusive: 29.1 µM [rising, single point]",
O=C(O)c1ccccc1OCCN1CCCC1=O,"inconclusive: 18.4 µM [rising, single point]",
Cc1cc(C)n(CC(=O)N/N=C/c2ccc([N+](=O)[O-])s2)n1,"inconclusive: 32.6 µM [cytotoxic, single point]",
Cc1ccc(CS(=O)(=O)c2ccc(C(=O)N3CCN(c4ccccn4)CC3)cc2[N+](=O)[O-])cc1,"inconclusive: 20.6 µM [cytotoxic, partial curve, poor fit]",
COc1ccc(NC(=S)NC(NC(=O)/C=C/c2ccccc2)C(Cl)(Cl)Cl)cc1 (centres undefined),,inactive: -31.6%
C/C(=N\Nc1nnc(-c2ccccc2)c(-c2ccccc2)n1)c1cccc([N+](=O)[O-])c1,"inconclusive: 1.46 µM [cytotoxic, full curve, poor fit]",
Cc1cccc(NC(=O)C2CCN(S(=O)(=O)c3ccc4c(c3)NC(=O)CO4)CC2)c1C,"inconclusive: 6.51 µM [rising, partial curve, poor fit]",
CN(CC(=O)N1CCCC1)S(=O)(=O)c1ccc2ccccc2c1,,inactive: -13.9%
O=C(NCCC1=CCCCC1)C1CCN(C(=O)c2ccc(Cl)cc2)CC1,"inconclusive: 16.4 µM [cytotoxic, single point]",
COc1ccc(Cc2nc3ccc(C(=O)NC(C)c4cnn(C)c4)cc3o2)cc1 (centres undefined),"inconclusive: 16.4 µM [cytotoxic, partial curve]",
COC(=O)c1cc(Nc2nc3ccccc3nc2NS(=O)(=O)c2ccc(C)cc2)ccc1Cl,,inactive: -7.24%
Cc1cc(C)nc(N/N=C2/CCCC/C2=C\c2ccccc2)n1,"inconclusive: 6.51 µM [cytotoxic, partial curve, poor fit]",
Cc1cc(C)n(-c2nc(N(c3ccccc3)c3ccccc3)nc(-n3nc(C)cc3C)n2)n1,active: 2.59 µM,
O=C1c2cccc3c(N4CCCCC4)ccc(c23)C(=O)N1CCO,"inconclusive: 29.1 µM [cytotoxic, single point]",

SMILES,Potency,"activity change, negative = cytotoxicity"
CC(=O)Nc1ccc(S(=O)(=O)N[C@@H](C)C(=O)N(C)Cc2cccs2)cc1,"inconclusive: 29.1 µM [rising, single point]",
CC(C)NC(=O)NC(=O)COc1ccc(Br)cc1Br,"inconclusive: 18.4 µM [cytotoxic, partial curve, poor fit]",
COc1ccc(OC)c(-c2nnc(NC(=O)Nc3ccc4ccccc4c3)s2)c1,,inactive: 0%
COc1cccc(C(=O)N(Cc2nc(-c3cccc(C)c3)no2)C(C)C)c1OC,,inactive: 0%
CC(C)CN1C(=O)CSCC1(C)C(=O)Nc1ccc2c(c1)OCCO2 (centres undefined),"inconclusive: 6.51 µM [cytotoxic, full curve]",
Cc1ccc(S(=O)(=O)N2CCC(C(=O)N3CCN(Cc4ccccc4)CC3)CC2)cc1,"inconclusive: 20.6 µM [cytotoxic, single point]",
Cn1cc(CN2CCC(n3nccc3NC(=O)CCOc3ccccc3)CC2)cn1,"inconclusive: 32.6 µM [rising, single point]",
CCOc1cc(N2CCCC2)ccc1[N+](=O)[O-],,inactive: -22.7%
COc1ccc(C(=O)Cn2c(NCCCO)nc3ccccc32)cc1OC,"inconclusive: 2.91 µM [rising, partial curve, poor fit]",
COc1ccccc1NC(=O)c1ccc(C)c(S(=O)(=O)N2CCCCC2)c1,"inconclusive: 7.31 µM [cytotoxic, partial curve]",
Cc1c(Cl)cccc1NC(=O)NCc1cccnc1,,inactive: 0%
CCN(C(=S)Nc1cccc(C)c1)c1ccccc1,,inactive: 11.5%
CC(C)(C)c1ccc(C(=O)Nc2ccc(CC(=O)O)cc2)o1,,inactive: 0.52%
COc1ccc(S(=O)(=O)NNC(=O)C23CC4CC(CC(C4)C2)C3)cc1[N+](=O)[O-],"inconclusive: 7.31 µM [cytotoxic, partial curve]",
CCCCn1c(=O)nc2n(-c3ccc(C)cc3)c3ccccc3cc-2c1=O,"inconclusive: 5.17 µM [cytotoxic, full curve]",
CC(C)CC(=O)Nc1ccc2nc(SCC(=O)N3CCc4ccccc43)sc2c1,,inactive: -22.3%
CCOc1ccccc1CNC(=O)c1sc2ncccc2c1-n1cccc1,,inactive: -21.3%
CCOC(=O)c1c(-c2ccccc2)csc1NC(=O)C(C)NCCCN1CCOCC1 (centres undefined),"inconclusive: 23.1 µM [cytotoxic, partial curve]",
Cc1cc(C)cc(-n2cccc2/C=C2/C(=N)N3C(=NC2=O)SN=C3S(C)(=O)=O)c1,,inactive: -16.5%
CC(Sc1nnc(-c2ccco2)n1N)C(=O)NCc1ccc2c(c1)OCO2 (centres undefined),,inactive: 5.52%
CS(=O)(=O)N1CCC2(CC1)OCCN2S(=O)(=O)c1ccccc1,"inconclusive: 29.1 µM [cytotoxic, single point]",
COC(=O)c1ccc(C)c(NC(=S)NCc2ccc(Cl)cc2)c1,active: 23.1 µM,
O=S1(=O)CC/C(=N/Nc2ccc(C(F)(F)F)cn2)c2cc(F)ccc21,"inconclusive: 11.6 µM [cytotoxic, partial curve, poor fit]",

# 3 structures out of the list, sorted by molar mass, ascending.
SMILES,Potency,"activity change, negative = cytotoxicity"
O=C(N/N=C/c1sc(=O)n(Cc2ccc(Br)cc2)c1Cl)c1ccco1,,inactive: -6.49%
Cc1ccc(CS(=O)(=O)c2ccc(C(=O)N3CCN(c4ccccn4)CC3)cc2[N+](=O)[O-])cc1,"inconclusive: 20.6 µM [cytotoxic, partial curve, poor fit]",
O=C(C(NS(=O)(=O)c1cccc2nsnc12)c1ccccc1)N1CCN(c2ccccn2)CC1 (centres undefined),"inconclusive: 16.4 µM [cytotoxic, single point]",

# (continued)

SMILES,Potency,"activity change, negative = cytotoxicity"
Cc1c(C(=O)NCc2cccc(Cl)c2)sc(=O)n1Cc1ccc(C(=O)N(C)C)cc1,active: 20.6 µM,
NC(=O)c1c(NC(=O)c2ccncn2)sc2c1CCCC2,inactive,
CCN1CCc2c(sc(NC(=S)NC(=O)c3cccc(F)c3)c2C(N)=O)C1,,inactive: -3.7%
OC(COCC1COc2ccccc2O1)CN1CCN(c2ccccn2)CC1 (centres undefined),"inconclusive: 11.6 µM [cytotoxic, partial curve]",
CCn1cnc2sc(-c3ccccc3)cc2c1=O,"inconclusive: 20.6 µM [cytotoxic, partial curve, poor fit]",
COC(=O)CCc1sc(Nc2ccc(Br)cc2)nc1-c1ccc(OC)cc1,"inconclusive: 9.2 µM [rising, partial curve]",
COc1ccccc1NC(=O)c1cc2c(=O)n(C)c3ccccc3c2n1C,"inconclusive: 20.6 µM [cytotoxic, partial curve, poor fit]",
CC1CCN(Cc2nc(Cl)c3c4c(sc3n2)CCC4)CC1,"inconclusive: 18.4 µM [cytotoxic, single point]",
O=C(CSc1nnc(-c2ccc3c(c2)OCO3)o1)Oc1ccccc1,,inactive: 3.02%
O=C(C1CCC(=O)N(C2CC2)C1)N1CCC(Oc2cccc(F)c2)CC1 (centres undefined),"inconclusive: 11.6 µM [cytotoxic, partial curve]",
O=C(CSc1nc2ccccc2s1)NNC(=S)Nc1ccc(Br)cc1,"inconclusive: 29.1 µM [rising, single point]",
CN1CCN(Cc2nc3ccccc3c(=O)n2Cc2nc(-c3ccc([N+](=O)[O-])cc3)cs2)CC1,"inconclusive: 29.1 µM [cytotoxic, single point]",
CCOc1ccccc1NC(=O)COc1ccc2c(c1)OCO2,"inconclusive: 29.1 µM [cytotoxic, single point]",
OC(C#CCN1CCOCC1)(c1ccccc1)C1CCCCC1 (centres undefined),"inconclusive: 13 µM [cytotoxic, partial curve]",
CCCn1c(C)cc(/C=C(\C#N)C(=O)OCC(=O)NC(=O)NC(C)(C)C)c1C,"inconclusive: 18.4 µM [cytotoxic, partial curve, poor fit]",
S=C(c1ccc(-c2cccc(Cl)c2)o1)N1CCCCC1,"inconclusive: 23.1 µM [cytotoxic, partial curve, poor fit]",
CCc1nc2ccc(C(=O)N3CCN(c4ccc([N+](=O)[O-])cc4)CC3)cc2nc1CC,"inconclusive: 14.6 µM [cytotoxic, single point]",
Cc1ccc2cccc(NC(=O)c3cccc4ccccc34)c2n1,"inconclusive: 18.4 µM [cytotoxic, single point]",
O=c1c(Cl)c(N2CCCCC2)cnn1-c1nc2ccccc2[nH]1,"inconclusive: 18.4 µM [cytotoxic, single point]",
Cc1cc(NC(c2nnc(-c3ccccc3)o2)c2ccccc2F)ccc1Br (centres undefined),,inactive: -13.5%
COc1ccc(NCc2ccccc2-c2nnc(-c3ccccc3)o2)cc1Cl,"inconclusive: 18.4 µM [rising, single point]",
Cc1sc(NC(=O)c2cccs2)nc1-c1ccccc1,"inconclusive: 23.1 µM [cytotoxic, single point]",
O=C(N/N=C/c1cccs1)C1COc2ccccc2O1 (centres undefined),"inconclusive: 29.1 µM [cytotoxic, single point]",
